The chains are these.
T1: recombinant nMAT2 protein with a hemagglutinin (3HA) tag at its carboxyl terminus (Arabidopsis thaliana) (UniProt Q9FJR9)
T1 sequence: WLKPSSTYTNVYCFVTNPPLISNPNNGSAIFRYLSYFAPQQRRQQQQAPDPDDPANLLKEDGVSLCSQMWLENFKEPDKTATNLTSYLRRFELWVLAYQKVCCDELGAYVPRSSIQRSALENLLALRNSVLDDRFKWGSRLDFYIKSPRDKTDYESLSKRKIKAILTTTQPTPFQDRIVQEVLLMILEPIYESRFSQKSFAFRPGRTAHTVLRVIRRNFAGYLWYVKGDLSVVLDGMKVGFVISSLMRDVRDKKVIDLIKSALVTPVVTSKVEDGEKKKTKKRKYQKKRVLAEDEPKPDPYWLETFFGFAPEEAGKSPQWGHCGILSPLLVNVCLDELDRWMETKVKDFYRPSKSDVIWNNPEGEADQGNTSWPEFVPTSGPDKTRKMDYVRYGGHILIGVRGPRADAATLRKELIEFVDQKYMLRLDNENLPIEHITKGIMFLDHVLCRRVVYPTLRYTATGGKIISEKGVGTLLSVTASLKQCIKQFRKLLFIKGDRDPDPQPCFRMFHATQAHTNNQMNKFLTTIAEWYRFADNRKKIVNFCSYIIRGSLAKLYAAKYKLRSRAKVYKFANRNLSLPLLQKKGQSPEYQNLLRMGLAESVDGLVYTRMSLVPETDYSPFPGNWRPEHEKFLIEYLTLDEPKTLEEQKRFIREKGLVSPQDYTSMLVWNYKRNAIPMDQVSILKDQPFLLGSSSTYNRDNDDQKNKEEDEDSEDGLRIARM

Chains of the proteins cited; added tags and fusions are not shown. Lines headed by an entry give the natural chain unless they say otherwise; changes in a name come on top.
UniProt Q9LUW5: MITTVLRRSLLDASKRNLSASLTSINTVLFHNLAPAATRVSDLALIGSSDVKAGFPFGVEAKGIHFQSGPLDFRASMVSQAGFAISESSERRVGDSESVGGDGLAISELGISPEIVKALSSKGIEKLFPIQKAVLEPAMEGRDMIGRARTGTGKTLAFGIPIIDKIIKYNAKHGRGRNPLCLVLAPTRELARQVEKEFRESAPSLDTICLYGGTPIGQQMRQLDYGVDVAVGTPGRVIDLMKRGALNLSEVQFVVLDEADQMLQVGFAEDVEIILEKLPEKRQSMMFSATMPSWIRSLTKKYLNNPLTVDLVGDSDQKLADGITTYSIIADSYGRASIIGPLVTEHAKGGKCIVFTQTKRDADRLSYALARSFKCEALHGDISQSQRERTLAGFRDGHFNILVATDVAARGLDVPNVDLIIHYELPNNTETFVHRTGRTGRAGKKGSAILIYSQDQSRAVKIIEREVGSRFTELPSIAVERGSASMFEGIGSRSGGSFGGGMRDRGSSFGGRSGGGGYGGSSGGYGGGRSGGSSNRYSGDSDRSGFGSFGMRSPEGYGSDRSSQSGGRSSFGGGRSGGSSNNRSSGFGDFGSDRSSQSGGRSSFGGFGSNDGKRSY
UniProt F4I611: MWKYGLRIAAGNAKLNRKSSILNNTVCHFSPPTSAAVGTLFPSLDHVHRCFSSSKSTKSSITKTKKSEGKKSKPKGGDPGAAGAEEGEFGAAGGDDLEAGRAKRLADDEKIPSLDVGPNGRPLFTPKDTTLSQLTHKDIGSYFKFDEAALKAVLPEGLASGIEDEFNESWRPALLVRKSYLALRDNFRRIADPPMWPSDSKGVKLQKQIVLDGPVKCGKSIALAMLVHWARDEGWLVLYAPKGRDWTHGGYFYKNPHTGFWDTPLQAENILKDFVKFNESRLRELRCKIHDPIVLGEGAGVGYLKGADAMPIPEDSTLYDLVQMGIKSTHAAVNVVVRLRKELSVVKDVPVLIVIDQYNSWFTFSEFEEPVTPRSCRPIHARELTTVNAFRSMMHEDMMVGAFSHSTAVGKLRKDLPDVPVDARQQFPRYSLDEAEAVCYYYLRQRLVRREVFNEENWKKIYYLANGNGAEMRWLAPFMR

B1: ribosomal factor At1g31817 (protein, UniProt Q8VZT8 38-314)
chain: GGRFREQVPVSGESANNSGLSNTGRIGSSPEPNPSTLRTFGDMKAGLLNRGVNGFSAPNAPPTFKSSLRSRLPNSLPDQFGQTNPGLPNTGGSGFSAPSLSSYENFTQSSSLLKENSRSGGKSSDLDFVREVIEDEGRRTAGIFSHFQRPNLETNADIIHIKMLRNNTFVTVTDSKGNVKCKATSGSLPDLKGGRKMTNYTADATAENIGRRAKAMGLKSVVVKVNGFTHFGKKKKAIIAFRDGFTNSRSDQNPIVYIEDTTRKAHNGCRLPRKRRV
B2: pentatricopeptide repeat (PPR) protein At1g55890 (protein, UniProt Q9LG23 20-398)
chain: FSSAATVVSEPTAVTAAISPPQKSLTSLVNGERNPKRIVEKFKKACESERFRTNIAVYDRTVRRLVAAKRLHYVEEILEEQKKYRDMSKEGFAARIISLYGKAGMFENAQKVFEEMPNRDCKRSVLSFNALLSAYRLSKKFDVVEELFNELPGKLSIKPDIVSYNTLIKALCEKDSLPEAVALLDEIENKGLKPDIVTFNTLLLSSYLKGQFELGEEIWAKMVEKNVAIDIRTYNARLLGLANEAKSKELVNLFGELKASGLKPDVFSFNAMIRGSINEGKMDEAEAWYKEIVKHGYRPDKATFALLLPAMCKAGDFESAIELFKETFSKRYLVGQTTLQQLVDELVKGSKREEAEEIVKIAKTNDFLKLKLNLPSQEE
B3: pentatricopeptide repeat (PPR) protein At1g26460 (protein, UniProt Q9FZD1 116-630)
chain: SLLNMFADWTASQRWSDMKQLFEVWVRSLDKNGKPNKPDVNLYNHYLRANLMMGASAGDMLDLVAPMEEFSVEPNTASYNLVLKAMYQARETEAAMKLLERMLLLGKDSLPDDESYDLVIGMHFGVGKNDEAMKVMDTALKSGYMLSTSVFTECVRSCVAKGRTDTLVSIIERCKAVDRNKSLCPSWILCNYIAEVAIQEDNSKLAFYAFEFMFKWITRGEMARPSVIFSVDEGLVVAGLASAARTCSSSLVEGSWTILKQSLRGRKAANPASYIAKINAYASLGNLQKAFTSLHELESAYADSEKEVVEEMLSPFTSLYPLVVACSKKGFETLDEVYFQLESLSQGDTPYKSVAALNCIILGCANTWDLDRAYQTFEAISASFGLTPNIDSYNALLYAFGKVKKTFEATNVFEHLVSIGVKPDSRTYSLLVDAHLINRDPKSALTVVDDMIKAGFEPSRETLKKLRRRCVREMDDENDDQVEALAKKFQIRMGSENRRNMLFNIDYSRGRALNN
B4: pentatricopeptide repeat (PPR) protein At1g61870 (protein, UniProt Q8LE47 27-408)
chain: SSASTILSPDSKTPLTSKEKSKAALSLLKSEKDPDRILEICRAASLTPDCRIDRIAFSAAVENLAEKKHFSAVSNLLDGFIENRPDLKSERFAAHAIVLYAQANMLDHSLRVFRDLEKFEISRTVKSLNALLFACLVAKDYKEAKRVYIEMPKMYGIEPDLETYNRMIKVFCESGSASSSYSIVAEMERKGIKPNSSSFGLMISGFYAEDKSDEVGKVLAMMKDRGVNIGVSTYNIRIQSLCKRKKSKEAKALLDGMLSAGMKPNTVTYSHLIHGFCNEDDFEEAKKLFKIMVNRGCKPDSECYFTLIYYLCKGGDFETALSLCKESMEKNWVPSFSIMKSLVNGLAKDSKVEEAKELIGQVKEKFTRNVELWNEVEAALPQ
B5: pentatricopeptide repeat (PPR) protein At1g10270 (protein, UniProt Q9SY69 1-913)
chain: MSLSHLLRRLCTTTTTTRSPLSISFLHQRIHNISLSPANEDPETTTGNNQDSEKYPNLNPIPNDPSQFQIPQNHTPPIPYPPIPHRTMAFSSAEEAAAERRRRKRRLRIEPPLHALRRDPSAPPPKRDPNAPRLPDSTSALVGQRLNLHNRVQSLIRASDLDAASKLARQSVFSNTRPTVFTCNAIIAAMYRAKRYSESISLFQYFFKQSNIVPNVVSYNQIINAHCDEGNVDEALEVYRHILANAPFAPSSVTYRHLTKGLVQAGRIGDAASLLREMLSKGQAADSTVYNNLIRGYLDLGDFDKAVEFFDELKSKCTVYDGIVNATFMEYWFEKGNDKEAMESYRSLLDKKFRMHPPTGNVLLEVFLKFGKKDEAWALFNEMLDNHAPPNILSVNSDTVGIMVNECFKMGEFSEAINTFKKVGSKVTSKPFVMDYLGYCNIVTRFCEQGMLTEAERFFAEGVSRSLPADAPSHRAMIDAYLKAERIDDAVKMLDRMVDVNLRVVADFGARVFGELIKNGKLTESAEVLTKMGEREPKPDPSIYDVVVRGLCDGDALDQAKDIVGEMIRHNVGVTTVLREFIIEVFEKAGRREEIEKILNSVARPVRNAGQSGNTPPRVPAVFGTTPAAPQQPRDRAPWTSQGVVHSNSGWANGTAGQTAGGAYKANNGQNPSWSNTSDNQQQQSWSNQTAGQQPPSWSRQAPGYQQQQSWSQQSGWSSPSGHQQSWTNQTAGQQQPWANQTPGQQQQWANQTPGQQQQLANQTPGQQQQWANQTPGQQQQWANQNNGHQQPWANQNTGHQQSWANQTPSQQQPWANQTTGQQQGWGNQTTGQQQQWANQTAGQQSGWTAQQQWSNQTASHQQSQWLNPVPGEVANQTPWSNSVDSHLPQQQEPGPSHECQETQEKKVVELRN

The values that follow come from PMC5713396.

These are yes or no findings as the source states them, for the method shown. In cells and extracts the contact can be indirect. A yes stands for co-enrichment or nearness to the bait. Other partners may have been found. Sequences can lack the tags named with a protein.

The test addresses T1, recombinant nMAT2 protein with a hemagglutinin (3HA) tag at its carboxyl terminus (Arabidopsis thaliana). Description: affinity purification with mass spectrometry; mitochondria extracts of nmat2/nMAT2-HA plants solubilized with 1% NP-40 in 150 mM NaCl, 10 mM sodium phosphate pH 7.2; anti-HA antibodies on protein A/G sepharose, 4 °C, 16 h; washes with 0.6 M NaCl, 0.5% NP-40, 50 mM Tris-HCl pH 8.3; LC-MS/MS; control: plants with empty vector.
Regarding RNA helicase PMH2 (from UniProt Q9LUW5), the binding entry was “binds”.

On to “ribosomal factor At1g16870 (from UniProt F4I611)”, for which the binding entry was “binds”.

For B1, the binding result is reported as “binds”.

For the molecule B2, the binding result was “binds”.

Regarding B3, the binding result is on record as “binds”.

On to B4, for which the binding entry was “binds”.

On to B5, for which the binding entry is “binds”.
